Source: publication PMC7557908
These are yes or no findings as the source states them, for the method shown. In cells and extracts the contact can be indirect. Binding calls can cover weak binding; strength is not graded here. Sequences can lack the tags named with a protein.

Protein sequences, listed by entry. Tags and fused reporters are not part of them. Lines headed by an entry give the natural chain unless they say otherwise; changes in a name come on top.
UniProt Q08397: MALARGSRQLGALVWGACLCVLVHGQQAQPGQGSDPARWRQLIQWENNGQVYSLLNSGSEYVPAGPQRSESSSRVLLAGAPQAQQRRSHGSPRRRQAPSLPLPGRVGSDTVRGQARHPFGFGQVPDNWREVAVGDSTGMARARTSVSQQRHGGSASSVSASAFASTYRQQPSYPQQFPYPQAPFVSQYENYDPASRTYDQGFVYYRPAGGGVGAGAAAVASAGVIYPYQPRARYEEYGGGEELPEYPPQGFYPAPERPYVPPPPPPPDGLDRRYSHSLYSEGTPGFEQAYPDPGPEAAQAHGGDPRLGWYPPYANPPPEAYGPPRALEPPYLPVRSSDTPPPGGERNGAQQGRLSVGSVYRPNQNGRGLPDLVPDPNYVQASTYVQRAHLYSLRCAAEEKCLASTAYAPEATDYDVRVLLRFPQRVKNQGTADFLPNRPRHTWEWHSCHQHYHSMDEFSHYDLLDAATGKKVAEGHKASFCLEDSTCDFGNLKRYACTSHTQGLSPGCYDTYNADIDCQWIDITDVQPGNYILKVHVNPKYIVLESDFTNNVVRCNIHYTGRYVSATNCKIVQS

Molecular target: GST-LOXL1 full length (FL), wild type (human (LOXL1 cloned from LN18 cDNA)) (UniProt Q08397)
Assay: pull-down; GST pull-down: GST-LOXL1 constructs incubated with His-BAG2 constructs; called a direct interaction (Fig. 4c, 4d, 4f)

B1: His-BAG2 1 to 108 AAs (1-108) (domain or fragment, UniProt O95816 1-108)
chain: MAQAKINAKANEGRFCRSSSMADRSSRLLESLDQLELRVEALREAATAVEQEKEILLEMIHSIQNSQDMRQISDGEREELNLTANRLMGRTLTVEVSVETIRNPQQQE
Question: Which binding does the source give for B1 here?
Answer: The binding was “binds”.
